Test results taken from PubChem BioAssay AID651803 (National Center for Advancing Translational Sciences (NCATS), 2012).
Out of some 1,200 compounds screened, fewer than 10 were called active. Calls follow the shape of the dose curve; as a rule, active = well fitted curve in the direction sought with a large enough effect; inconclusive = small, poorly fitted or top-dose-only effect, or another doubt; inactive = no such curve, though single readings can be large or run the other way. The list shows a part of the results.

Amino acid sequences for entries named in this document (tags omitted). A change or cut given only in a name is not applied to a line headed by its entry.
UniProt P11308: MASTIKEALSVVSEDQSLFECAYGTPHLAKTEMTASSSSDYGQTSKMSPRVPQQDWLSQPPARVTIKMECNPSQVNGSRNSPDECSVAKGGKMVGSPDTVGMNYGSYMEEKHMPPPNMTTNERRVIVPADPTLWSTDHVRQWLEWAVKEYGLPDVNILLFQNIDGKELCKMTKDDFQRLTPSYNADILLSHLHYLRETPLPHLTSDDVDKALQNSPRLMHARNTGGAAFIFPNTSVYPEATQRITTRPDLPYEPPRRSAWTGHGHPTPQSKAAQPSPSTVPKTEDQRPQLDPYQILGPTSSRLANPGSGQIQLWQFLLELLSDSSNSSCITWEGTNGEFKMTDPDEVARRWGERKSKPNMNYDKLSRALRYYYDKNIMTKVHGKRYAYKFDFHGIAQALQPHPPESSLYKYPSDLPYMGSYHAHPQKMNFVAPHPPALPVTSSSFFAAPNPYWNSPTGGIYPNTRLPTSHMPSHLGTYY

Target: Transcriptional regulator ERG (Homo sapiens) (UniProt P11308)
Assay: qHTS for Small Molecule Inhibitors of the ERG Ets/DNA interaction: TR assay against cherry picks; also: % of control where 0% means no effect
Settings: ERG Ets domain-DNA fluorescence polarization, Texas red probe; at 154 µM (top of the series)
Procedure, shortened: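 Polarization read sequentially for fluorescein (ex 480/em 535 nm) and Texas red (ex 555/em 632 nm) probes, 5 nM and 100 nM solutions, displaced from His-ERG Ets domain (1 uM solution), pH 7.5 Tris/KCl/EDTA/DTT buffer.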

Activity change, negative = inhibition, inactive:
N#Cc1c(C(F)(F)F)cc(-c2cccs2)nc1SCC(=O)Nc1cccc(Br)c1 5.95%
O=C(N/N=C/c1ccc(-c2ccccc2[N+](=O)[O-])o1)[C@H]1C[C@@H]1c1ccccc1 -18.9%
N#C/C(=C\c1cn[nH]c1-c1ccc(Cl)cc1)C(=O)NCc1ccccc1 1.73%
Nc1ccncc1N 1.22%
O=C(C[C@H]1C/C=C\CC[C@@H](Cc2ccc(F)cc2)C(=O)OC[C@H]2CCCN2C1=O)N[C@H](CO)Cc1ccccc1 -10%
CN1C2CCC1CC(NC(=O)CSCc1ccc(Cl)cc1Cl)C2 (configuration not stated) 24.2%
CCNc1nc(OCC)nc(N2CCC(Cc3ccccc3)CC2)n1 -16.7%
O=C(NCc1ccccc1)/C(=C/c1ccco1)NC(=O)c1ccco1 2.17%
CCOC(=O)C1(Cc2ccccc2Cl)CCN(S(=O)(=O)N(C)C)CC1 -13.5%
CCCCN1C(N)=NC[C@@H]1CC1CCCCC1 3.53%
CN(C)CCCNc1c2ccccc2nc2ccccc12 -2.02%
Cc1ccc(S(=O)(=O)N2[C@@H](c3ccccc3F)C(C(=O)O)=CC[C@H]2c2cccs2)cc1 4.24%
O=C(OCCOCCN=C1NS(=O)(=O)c2ccccc21)c1ccccc1Br 4.92%
O=C(O)c1ccc(Nc2ncnc3scc(-c4ccccc4)c23)cc1 -2.03%
COc1cccc(CN2CCNC(=O)C2CC(=O)N(Cc2cnn(C)c2)C(C)C)c1 (configuration not stated) 0.414%
CC(C[N+](C)(C)C)OC(N)=O (configuration not stated) 3.29%
CCN1CCN(c2oc(-c3ccc([N+](=O)[O-])cc3)nc2C#N)CC1 -7.07%
Cc1ccc(C(=O)N2CCN(c3ccc(NC(=O)CSc4ccc(Cl)cc4)cc3)CC2)cc1 -2.73%
O=C(Cn1cnc(S(=O)(=O)N2CCCCC2)c1)N1CCN(c2ccc([N+](=O)[O-])cc2)CC1 4.86%
CCc1n[nH]c(=S)n1/N=C/c1ccc(N(C)c2ccccc2)cc1 1.89%
CN(C)C=NC(=O)c1cc(C(=O)c2ccc(Cl)cc2)c[nH]1 -14.8%
COc1ccc(C(=O)NCC(=O)N2CCN(C(=O)c3ccco3)CC2)cc1 4.13%
Cc1ccc(COC(=O)CCN=C2NS(=O)(=O)c3ccccc32)cc1 1.6%
Cc1ccccc1NC(=O)COc1ccc2oc(=O)cc(C)c2c1 6.08%
CC(=O)NC(CC(=O)Nc1nc(-c2ccccc2)c(C(C)=O)s1)c1ccccc1 (configuration not stated) 0.138%
Cc1ccc(C)c(NC(=O)COC(=O)c2cc(=O)c3ccccc3o2)c1 3.93%
CN(C)S(=O)(=O)c1ccc(C(=O)Nc2ccc(Cl)cc2)cc1 9.06%
Cc1ccc(-c2nnn(CC(=O)N(c3ccccc3)C(C(=O)NCC3CCCO3)c3ccc(F)cc3)n2)o1 (configuration not stated) -5.14%
Cc1cc(-c2n[nH]c(=S)n2-c2ccc(C)c(C)c2)no1 2.56%
CNC(=S)N/N=C/c1c(C)nn(-c2ccccc2)c1Cl -6.58%
CCOC(=O)N1CCC(NC(=O)c2ccc(CO)c(C(=O)NC3CCN(C(=O)OCC)CC3)c2)CC1 -1.53%
Cn1ncc(Cl)c1C(=O)N1CCN(C23CC4CC(CC(C4)C2)C3)CC1 -12.6%
c1ccc2sc(NN=C3CCCCCC3)nc2c1 0.486%
c1ccc(SSc2ccccc2)cc1 5.81%
COc1ccc(-c2cc3ncc(C(C)=O)c(C)n3n2)cc1 3.21%
OC(CN1CCCCC1)Cn1c2ccccc2c2cc(Br)ccc21 (configuration not stated) -14.6%
CCCNc1ncnc2c1cnn2C1CCCCO1 (configuration not stated) 0.107%
Nc1ccc2nc3c(=O)n(CCc4ccccc4)c(=O)[nH]c3nc2c1 38.9%
CCNC(=O)COc1ccc(/C=N/NC(=O)c2cccnc2)cc1OC -1.35%
CN(C)S(=O)(=O)c1ccc(C(=O)OCC(=O)NC(=O)NC2CCCC2)cc1 0.67%
CC1=Nc2ccccc2/C1=C/c1nc(-c2ccc(C)s2)oc1O 8.96%
COC(=O)[C@H](Cc1ccccc1)NC(=O)C1(OC(C)=O)CC(OC(C)=O)C(OC(C)=O)C(OC(C)=O)C1 (some centres not stated) -0.524%
COc1ccc(-c2ccc(SCC(=O)NCC3CCCO3)nn2)cc1OC (configuration not stated) 5.17%
COC(=O)C(C)Sc1ccc2nnc(CCNS(=O)(=O)c3ccc(C)cc3)n2n1 (configuration not stated) 4.39%
NC(=S)c1cc2ccc(O)cc2oc1=O 119%
CN(C(=O)c1ccncc1)C1CCS(=O)(=O)C1 (configuration not stated) 3.35%
COc1ccc(C)cc1S(=O)(=O)Nc1cccc(C)c1 5.01%
CCOC(=O)c1c(NC(=O)CSc2nnc(-c3ccc(Cl)cc3)o2)sc2c1CCC2 16.4%
COc1ccc(-c2nc3n(n2)C(c2ccccc2OC)C(C(=O)Nc2cccnc2)=C(C)N3)cc1 (configuration not stated) -20.2%
Cc1csc(NC(=O)CSc2nnc(NC(=O)COc3ccc(Cl)cc3)s2)n1 0.404%
O=C(COc1ccccc1Cl)Nc1ccc(CN2CCCCC2)cc1 1.34%
CN(C)C(CNC(=O)/C=C/c1cccc(Cl)c1)c1ccccc1 (configuration not stated) -4.23%
COc1cccc(-c2nnc(NC(=O)C(C)C)o2)c1 2.58%
Cc1ccccc1C(=O)NCCCc1ccccc1 2.66%
O=C(CNC(=O)c1ccccc1Cl)OCC(=O)N1CCc2ccccc21 1.84%
CC1CCN(C(=O)COC(=O)c2ccc(=O)n(Cc3ccccc3)n2)CC1 8.59%
CC1=CC(=O)C(C(C)C)=C/C1=C(\c1cc(C(C)C)c(OP(=O)(O)O)cc1C)c1ccccc1C(=O)O -2.93%
COc1ccc(CCC(=O)NNC(=O)c2cc(Cl)ccc2OC)cc1 -11.6%
COc1ccc(NC(=O)COC(=O)C2C3CC4OC(=O)C2C4C3)cc1 (configuration not stated) 6.29%
Cc1ccc(CNC(=O)Cn2c(=O)n(Cc3ccc(F)cc3)c(=O)c3sc4ccccc4c32)cc1 3.27%
O=S(=O)(Nc1cccc(S(=O)(=O)N2CCCCC2)c1)c1ccc(Cl)s1 -15%
CC(=O)Nc1cccc(NC(=O)c2ccccc2OCc2c(C)noc2C)c1 -16.3%
CCN1CCN(C(=O)Cn2ncc3ccsc3c2=O)CC1 7%
O=C(NC1CCCCCCC1)c1ccc(F)c(S(=O)(=O)N2CCOCC2)c1 -7%
C=CCn1cccc(C(=O)Nc2cc(OC)c(OC)c(OC)c2)c1=O 0.601%
CCOc1cc(CNc2cccc3[nH]c(C)nc23)ccc1OC 3.22%
COc1ccc(CNC(=O)c2sc(=S)n(-c3ccccc3)c2N)cc1 10.8%
CC(C)N(C(=O)Cn1cc(S(=O)(=O)CC(=O)N2CCOCC2)c2ccccc21)C(C)C -5.17%
N/C(=N\c1nc2ccccc2o1)NC(=O)c1cccc(Br)c1 1.54%
COc1cc(NC(=O)CCCNC(=O)c2ccc(Cl)cc2)cc(OC)c1 -10.9%
N#Cc1c(SCc2c(Cl)cccc2Cl)nc(N)[nH]c1=S 1.43%
Cc1ccc(-n2c(Cc3noc4ccccc34)n[nH]c2=S)cc1 -1.53%
Cc1ccc(-c2noc(C3CCCN(C(=O)c4cccc([N+](=O)[O-])c4)C3)n2)o1 (configuration not stated) 0.0783%
CSc1ccccc1NC(=O)CN(C)C(=O)/C=C/c1ccccc1 0.312%
COC(=O)C(=O)/C=C(\O)c1ccc(C)cc1 -10.1%
CSC(=NC#N)N1CCN(C(=NC#N)SC)CC1 0.746%
COc1ccc(C2(C(=O)Nc3ccc(OC)cc3OC)CCCC2)cc1 -3.52%
Cc1ccc(NC(=O)C2CCN(S(=O)(=O)c3cccc(C(F)(F)F)c3)CC2)nc1 -0.166%
CC(C#N)(NC(=O)CN1CCN(S(=O)(=O)c2ccccc2C#N)CC1)C1CC1 (configuration not stated) 5.77%
COCCN(CCOC)Cc1c(O)ccc2c1O/C(=C\c1ccco1)C2=O -1.22%
O=C(CN1CCOCC1)NNC(=S)Nc1ccccc1 0%
CCOC(=O)N1CCN(C(=O)COC(=O)c2cccc(S(C)(=O)=O)c2)CC1 4.09%
COc1cccc(-n2nc3c(=S)[nH]nc(C)c3c2C)c1 -1.09%
Cc1ccc(CNC(=O)c2sc3nc(-c4ccc(F)cc4)ccc3c2N)cc1 -12%
CC(=O)OCC(=O)C1=CCC2C3CCC4=CC(=O)C=CC4(C)C3(F)C(OC(C)=O)CC12C (configuration not stated) -1.19%
O=C(c1ccc(CS(=O)c2ccccc2Cl)o1)N1CCN(c2ccccn2)CC1 (configuration not stated) 2.68%
CCN(CC)S(=O)(=O)c1cccc(-c2nc3n(n2)Cc2ccccc2-3)c1 17%
O=C(NC(=S)NNC(=O)c1ccccc1O)c1cccc([N+](=O)[O-])c1 -6.41%
COc1cc(OC)c(OC)cc1/C=N/NC(=O)c1cccc(S(=O)(=O)N2CCOCC2)c1 -24.6%
O=C(c1ccco1)N(Cc1ccc2c(c1)OCO2)Cc1cc2cc3c(cc2[nH]c1=O)OCO3 0.603%
COc1ccc(S(=O)(=O)N2CCCC(C(F)(F)F)C2)cc1 (configuration not stated) -12.3%
CC(C)CC(=O)CN1C(=O)C2(OCCO2)c2ccccc21 -1.61%

2 entries drawn at random from the list so far:
Activity change, negative = inhibition, inactive:
Cc1ccc(-n2c(Cc3noc4ccccc34)n[nH]c2=S)cc1 -1.53%
CSC(=NC#N)N1CCN(C(=NC#N)SC)CC1 0.746%

Quoted from above, 6 compounds:
Activity change, negative = inhibition, inactive:
c1ccc(SSc2ccccc2)cc1 5.81%
COc1ccc(-c2cc3ncc(C(C)=O)c(C)n3n2)cc1 3.21%
OC(CN1CCCCC1)Cn1c2ccccc2c2cc(Br)ccc21 (configuration not stated) -14.6%
CCCNc1ncnc2c1cnn2C1CCCCO1 (configuration not stated) 0.107%
Nc1ccc2nc3c(=O)n(CCc4ccccc4)c(=O)[nH]c3nc2c1 38.9%
CCNC(=O)COc1ccc(/C=N/NC(=O)c2cccnc2)cc1OC -1.35%
